In paper doi:10.1101/2021.08.13.456187:
No constants are given. Whether binding was seen depends on the method and setting. In cells and extracts the contact can be indirect. Here binding means that the protein was enriched with, or labelled near, the bait; the list need not be complete.

Molecular target: TbUbL1-myc (C-terminally triple c-myc-tagged Tb927.11.4130) (Trypanosoma brucei) (UniProt Q386A3)
Test: affinity purification with mass spectrometry

Tb927.10.780, a putative RING domain containing E3 ubiquitin ligase (from UniProt Q38CG2)
binding: binds
